US20220401524A1
These are yes or no findings as the source states them, for the method shown. Some binding calls cover weakened binding; strength is not graded here.

Protein sequences, listed by entry. Tags and fused reporters are not part of them. Lines headed by an entry give the natural chain unless they say otherwise; changes in a name come on top.
UniProt P02745: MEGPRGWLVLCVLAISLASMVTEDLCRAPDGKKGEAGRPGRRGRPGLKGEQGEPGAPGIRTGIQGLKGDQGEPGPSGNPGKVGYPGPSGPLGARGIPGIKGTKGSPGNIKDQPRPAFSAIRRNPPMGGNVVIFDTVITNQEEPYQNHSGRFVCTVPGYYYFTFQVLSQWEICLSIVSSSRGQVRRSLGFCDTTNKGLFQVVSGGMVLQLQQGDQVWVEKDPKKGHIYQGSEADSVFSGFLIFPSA
UniProt P04275: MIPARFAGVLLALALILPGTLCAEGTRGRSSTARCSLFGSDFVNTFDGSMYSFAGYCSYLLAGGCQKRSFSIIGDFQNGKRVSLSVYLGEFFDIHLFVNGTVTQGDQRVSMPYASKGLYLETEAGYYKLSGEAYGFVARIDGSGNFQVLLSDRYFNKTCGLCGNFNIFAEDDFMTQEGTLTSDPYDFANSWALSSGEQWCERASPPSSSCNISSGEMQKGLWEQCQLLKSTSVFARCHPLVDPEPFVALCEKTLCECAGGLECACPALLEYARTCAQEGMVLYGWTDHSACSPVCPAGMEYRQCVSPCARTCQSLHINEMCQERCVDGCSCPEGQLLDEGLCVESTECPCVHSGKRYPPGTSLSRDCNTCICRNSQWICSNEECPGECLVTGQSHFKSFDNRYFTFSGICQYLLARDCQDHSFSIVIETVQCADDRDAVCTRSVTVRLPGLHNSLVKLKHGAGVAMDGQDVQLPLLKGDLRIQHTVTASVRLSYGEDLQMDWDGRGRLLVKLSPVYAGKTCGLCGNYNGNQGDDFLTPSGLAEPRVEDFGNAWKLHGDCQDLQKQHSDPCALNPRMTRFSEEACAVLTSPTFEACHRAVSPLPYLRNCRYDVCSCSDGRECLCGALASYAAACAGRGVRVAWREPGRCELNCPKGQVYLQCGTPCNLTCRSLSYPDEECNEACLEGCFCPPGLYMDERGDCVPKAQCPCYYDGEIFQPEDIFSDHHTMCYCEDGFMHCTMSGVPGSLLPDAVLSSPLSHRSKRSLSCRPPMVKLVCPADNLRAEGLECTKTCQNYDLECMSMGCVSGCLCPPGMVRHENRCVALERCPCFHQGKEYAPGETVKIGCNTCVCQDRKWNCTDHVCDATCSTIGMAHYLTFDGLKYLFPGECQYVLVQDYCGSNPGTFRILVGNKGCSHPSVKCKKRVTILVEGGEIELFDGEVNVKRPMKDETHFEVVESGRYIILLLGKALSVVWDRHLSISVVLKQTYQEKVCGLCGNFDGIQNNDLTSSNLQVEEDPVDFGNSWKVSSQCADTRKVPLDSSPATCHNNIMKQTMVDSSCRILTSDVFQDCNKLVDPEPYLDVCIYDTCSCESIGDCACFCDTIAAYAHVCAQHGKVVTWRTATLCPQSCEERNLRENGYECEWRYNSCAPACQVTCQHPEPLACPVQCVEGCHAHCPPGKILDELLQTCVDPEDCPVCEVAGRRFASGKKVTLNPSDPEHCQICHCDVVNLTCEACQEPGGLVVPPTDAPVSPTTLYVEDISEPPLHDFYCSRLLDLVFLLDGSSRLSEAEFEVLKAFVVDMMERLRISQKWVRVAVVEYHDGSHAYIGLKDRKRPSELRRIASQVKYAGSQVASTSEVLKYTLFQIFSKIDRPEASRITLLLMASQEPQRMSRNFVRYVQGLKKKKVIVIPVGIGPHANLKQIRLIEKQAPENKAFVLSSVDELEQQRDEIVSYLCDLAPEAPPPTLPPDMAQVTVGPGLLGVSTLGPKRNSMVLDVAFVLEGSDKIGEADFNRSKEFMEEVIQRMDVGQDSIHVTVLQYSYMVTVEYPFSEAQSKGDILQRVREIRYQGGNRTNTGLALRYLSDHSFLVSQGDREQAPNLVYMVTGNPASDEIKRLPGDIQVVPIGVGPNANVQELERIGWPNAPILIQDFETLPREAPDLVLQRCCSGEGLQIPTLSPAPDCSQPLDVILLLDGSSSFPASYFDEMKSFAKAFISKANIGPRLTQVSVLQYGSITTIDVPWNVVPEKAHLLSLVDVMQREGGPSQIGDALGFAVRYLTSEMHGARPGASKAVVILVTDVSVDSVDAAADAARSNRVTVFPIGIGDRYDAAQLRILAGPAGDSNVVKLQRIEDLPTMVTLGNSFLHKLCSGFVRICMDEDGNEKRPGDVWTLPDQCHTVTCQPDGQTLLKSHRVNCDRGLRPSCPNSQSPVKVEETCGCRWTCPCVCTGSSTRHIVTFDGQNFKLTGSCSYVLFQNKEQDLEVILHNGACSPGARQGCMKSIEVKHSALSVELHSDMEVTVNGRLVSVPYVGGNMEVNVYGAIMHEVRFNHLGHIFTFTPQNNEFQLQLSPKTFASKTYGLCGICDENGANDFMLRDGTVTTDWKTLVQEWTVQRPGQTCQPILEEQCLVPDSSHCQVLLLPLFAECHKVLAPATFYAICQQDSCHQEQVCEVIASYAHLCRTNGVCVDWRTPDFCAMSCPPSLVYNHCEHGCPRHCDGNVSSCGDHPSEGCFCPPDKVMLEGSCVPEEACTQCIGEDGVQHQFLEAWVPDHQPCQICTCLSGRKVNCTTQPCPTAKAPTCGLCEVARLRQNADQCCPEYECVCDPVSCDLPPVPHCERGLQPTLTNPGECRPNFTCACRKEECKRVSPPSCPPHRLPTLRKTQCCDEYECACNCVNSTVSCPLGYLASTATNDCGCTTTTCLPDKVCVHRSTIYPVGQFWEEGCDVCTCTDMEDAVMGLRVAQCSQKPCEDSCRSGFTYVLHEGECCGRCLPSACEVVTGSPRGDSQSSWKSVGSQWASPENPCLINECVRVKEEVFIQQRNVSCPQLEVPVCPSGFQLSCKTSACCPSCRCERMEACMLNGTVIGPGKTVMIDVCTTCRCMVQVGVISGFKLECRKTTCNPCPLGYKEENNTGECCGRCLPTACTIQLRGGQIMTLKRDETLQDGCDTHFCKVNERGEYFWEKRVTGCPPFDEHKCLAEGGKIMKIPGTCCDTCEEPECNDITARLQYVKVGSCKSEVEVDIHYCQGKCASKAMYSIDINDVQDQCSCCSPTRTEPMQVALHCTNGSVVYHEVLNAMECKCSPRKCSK

Assays:
complement C1q (human) [1] = molecular target: complement C1q (human) (UniProt P02745); test: cholesterol crystals coated with C1q
complement C1q (human) [2] = molecular target: complement C1q (human) (UniProt P02745); test: CC-C1q-vWF complexes, flow cytometry
complement C1q (human) [3] = molecular target: complement C1q (human) (UniProt P02745); test: summary of the binding experiments of Example 1
complement C1q (human) [4] = molecular target: complement C1q (human) (UniProt P02745); test: rvWF added to surfaces coated with C1q, static and flow
complement C1q (human) [5] = molecular target: complement C1q (human) (UniProt P02745); test: vWF on surface-bound C1q, static and under shear stress
complement C1q (human) [6] = molecular target: complement C1q (human) (UniProt P02745); test: discussion of Example 2, cholesterol crystals coated with C1q
complement C1q (human) [7] = molecular target: complement C1q (human) (UniProt P02745); test: flow cytometry on apoptotic microparticles incubated with C1q and vWF
complement C1q (human) [8] = molecular target: complement C1q (human) (UniProt P02745); test: flow cytometry and microscopy on cholesterol crystals coated with C1q
complement C1q (human) [9] = molecular target: complement C1q (human) (UniProt P02745); test: flow cytometry, confocal microscopy and ImageStreamX, C1q immobilized on cholesterol crystals
complement C1q (human) [10] = molecular target: complement C1q (human) (UniProt P02745); test: flow cytometry, confocal microscopy and imaging flow cytometry on cholesterol crystals coated with C1q

binding (complement C1q (human) [1]): binds
binding (complement C1q (human) [2]): binds
binding (complement C1q (human) [3]): binds
binding (complement C1q (human) [4]): binds
binding (complement C1q (human) [5]): binds
binding (complement C1q (human) [6]): binds
binding (complement C1q (human) [7]): binds
binding (complement C1q (human) [8]): binds
binding (complement C1q (human) [9]): binds
binding (complement C1q (human) [10]): binds
Substance: recombinant von Willebrand factor (from UniProt P04275 764-2813) (ligand)
